# The supplement of paper PMC11438910
# Some of the results follow. The signal is at background level for most entries.
# Tests used:
# Assay in all cases: fluorescence intensity of antibody binding to polysaccharide-coupled beads; higher = stronger binding
# [1] = molecular target: pneumococcal polysaccharide Pn34
# [2] = molecular target: pneumococcal polysaccharide Pn35A
# [3] = molecular target: pneumococcal polysaccharide Pn35B
# [4] = molecular target: pneumococcal polysaccharide Pn35C
# [5] = molecular target: pneumococcal polysaccharide Pn35F
# [6] = molecular target: pneumococcal polysaccharide Pn36
# [7] = molecular target: pneumococcal polysaccharide Pn37
# [8] = molecular target: pneumococcal polysaccharide Pn38
# [9] = molecular target: pneumococcal polysaccharide Pn39
# [10] = molecular target: pneumococcal polysaccharide Pn4
# [11] = molecular target: pneumococcal polysaccharide Pn40
# [12] = molecular target: pneumococcal polysaccharide Pn41A
# [13] = antibody concentration 0.1 ng/mL
# [14] = antibody concentration 0.534724 ng/mL
# [15] = antibody concentration 2.8593 ng/mL
# [16] = antibody concentration 15.2894 ng/mL
# [17] = antibody concentration 81.7561 ng/mL
# [18] = antibody concentration 437.17 ng/mL
# [19] = antibody concentration 2337.65 ng/mL
# [20] = antibody concentration 12500 ng/mL
binder,measurement,setting,value
4-127.1 (protein) chain 1: QVQLQESGPGLVKPSETLSLTCAVSDYSINTGHGWTWIRQPPGKGLEWIGYIGGSSGSPNYNPSLKSRVTISKDTSKNELSLKLNSVTAADTAVYYCARRIPADRSGNDFWGQGVLVTVSS chain 2: QSVLTQPPSVSGDPGQRVTISCTGSSSNIGGFYGYWYQQFPGTAPKLLIYDNNKRPSGISDRFSGSKSGTSASLTITGLQPGDEADYYCGSWDSSLSAHVFGSGTKLTVL,fluorescence intensity,[1]; [13],12.5 MFI
same,fluorescence intensity,[1]; [14],14.5 MFI
same,fluorescence intensity,[1]; [15],14.8 MFI
same,fluorescence intensity,[1]; [16],13 MFI
same,fluorescence intensity,[1]; [17],13 MFI
same,fluorescence intensity,[1]; [18],13.8 MFI
same,fluorescence intensity,[1]; [19],14.8 MFI
same,fluorescence intensity,[1]; [20],17 MFI
same,fluorescence intensity,[2]; [13],16 MFI
same,fluorescence intensity,[2]; [14],16.5 MFI
same,fluorescence intensity,[2]; [15],18.8 MFI
same,fluorescence intensity,[2]; [16],16.5 MFI
same,fluorescence intensity,[2]; [17],17 MFI
same,fluorescence intensity,[2]; [18],15.5 MFI
same,fluorescence intensity,[2]; [19],19.2 MFI
same,fluorescence intensity,[2]; [20],36 MFI
same,fluorescence intensity,[3]; [13],19.5 MFI
same,fluorescence intensity,[3]; [14],17.5 MFI
same,fluorescence intensity,[3]; [15],18.5 MFI
same,fluorescence intensity,[3]; [16],17 MFI
same,fluorescence intensity,[3]; [17],18.8 MFI
same,fluorescence intensity,[3]; [18],18.8 MFI
same,fluorescence intensity,[3]; [19],19.5 MFI
same,fluorescence intensity,[3]; [20],30 MFI
same,fluorescence intensity,[4]; [13],20.2 MFI
same,fluorescence intensity,[4]; [14],20 MFI
same,fluorescence intensity,[4]; [15],20.8 MFI
same,fluorescence intensity,[4]; [16],20.5 MFI
same,fluorescence intensity,[4]; [17],20 MFI
same,fluorescence intensity,[4]; [18],18.5 MFI
same,fluorescence intensity,[4]; [19],20.5 MFI
same,fluorescence intensity,[4]; [20],24 MFI
same,fluorescence intensity,[5]; [13],22 MFI
same,fluorescence intensity,[5]; [14],18.5 MFI
same,fluorescence intensity,[5]; [15],17.2 MFI
same,fluorescence intensity,[5]; [16],21.5 MFI
same,fluorescence intensity,[5]; [17],18.2 MFI
same,fluorescence intensity,[5]; [18],23.5 MFI
same,fluorescence intensity,[5]; [19],19 MFI
same,fluorescence intensity,[5]; [20],22.5 MFI
same,fluorescence intensity,[6]; [13],16 MFI
same,fluorescence intensity,[6]; [14],16.5 MFI
same,fluorescence intensity,[6]; [15],14.5 MFI
same,fluorescence intensity,[6]; [16],15.5 MFI
same,fluorescence intensity,[6]; [17],16 MFI
same,fluorescence intensity,[6]; [18],17 MFI
same,fluorescence intensity,[6]; [19],17.5 MFI
same,fluorescence intensity,[6]; [20],38.8 MFI
same,fluorescence intensity,[7]; [13],25 MFI
same,fluorescence intensity,[7]; [14],24.8 MFI
same,fluorescence intensity,[7]; [15],24.5 MFI
same,fluorescence intensity,[7]; [16],24.5 MFI
same,fluorescence intensity,[7]; [17],25 MFI
same,fluorescence intensity,[7]; [18],26.2 MFI
same,fluorescence intensity,[7]; [19],41.2 MFI
same,fluorescence intensity,[7]; [20],141 MFI
same,fluorescence intensity,[8]; [13],27.5 MFI
same,fluorescence intensity,[8]; [14],27 MFI
same,fluorescence intensity,[8]; [15],24.5 MFI
same,fluorescence intensity,[8]; [16],25 MFI
same,fluorescence intensity,[8]; [17],24.8 MFI
same,fluorescence intensity,[8]; [18],25.8 MFI
same,fluorescence intensity,[8]; [19],27.5 MFI
same,fluorescence intensity,[8]; [20],35.5 MFI
same,fluorescence intensity,[9]; [13],20.8 MFI
same,fluorescence intensity,[9]; [14],17.5 MFI
same,fluorescence intensity,[9]; [15],17.5 MFI
same,fluorescence intensity,[9]; [16],18 MFI
same,fluorescence intensity,[9]; [17],17 MFI
same,fluorescence intensity,[9]; [18],18 MFI
same,fluorescence intensity,[9]; [19],19.5 MFI
same,fluorescence intensity,[9]; [20],30.5 MFI
same,fluorescence intensity,[10]; [13],18.5 MFI
same,fluorescence intensity,[10]; [14],18.5 MFI
same,fluorescence intensity,[10]; [15],17 MFI
same,fluorescence intensity,[10]; [16],17 MFI
same,fluorescence intensity,[10]; [17],19.5 MFI
same,fluorescence intensity,[10]; [18],18.5 MFI
same,fluorescence intensity,[10]; [19],26.5 MFI
same,fluorescence intensity,[10]; [20],42 MFI
same,fluorescence intensity,[11]; [13],17 MFI
same,fluorescence intensity,[11]; [14],17 MFI
same,fluorescence intensity,[11]; [15],16.5 MFI
same,fluorescence intensity,[11]; [16],16.5 MFI
same,fluorescence intensity,[11]; [17],17.5 MFI
same,fluorescence intensity,[11]; [18],17.8 MFI
same,fluorescence intensity,[11]; [19],21.2 MFI
same,fluorescence intensity,[11]; [20],46 MFI
same,fluorescence intensity,[12]; [13],22.5 MFI
same,fluorescence intensity,[12]; [14],23.5 MFI

# Some of the entries so far, with bars between the fields.
binder | measurement | setting | value
4-127.1 (protein) chain 1: QVQLQESGPGLVKPSETLSLTCAVSDYSINTGHGWTWIRQPPGKGLEWIGYIGGSSGSPNYNPSLKSRVTISKDTSKNELSLKLNSVTAADTAVYYCARRIPADRSGNDFWGQGVLVTVSS chain 2: QSVLTQPPSVSGDPGQRVTISCTGSSSNIGGFYGYWYQQFPGTAPKLLIYDNNKRPSGISDRFSGSKSGTSASLTITGLQPGDEADYYCGSWDSSLSAHVFGSGTKLTVL | fluorescence intensity | [1]; [18] | 13.8 MFI
same | fluorescence intensity | [3]; [15] | 18.5 MFI
same | fluorescence intensity | [3]; [20] | 30 MFI
same | fluorescence intensity | [4]; [20] | 24 MFI
same | fluorescence intensity | [7]; [17] | 25 MFI
